The campaign covered roughly 400,000 compounds. About 5,500 (1.4%) were called active. The inconclusive results got no clear call from the source; some entries with a clear call stand among them for comparison. Calls come from the whole dose curve; as a rule, active = well fitted cell-killing curve with a large enough effect; inconclusive = small, poorly fitted or top-dose-only effect, or effect the other way; inactive = flat fitted curve, though single readings scatter. A potency beside an inconclusive call is a rough fit, not a confirmed value.
Experiment: qHTS assay for MDR1-selective chemotherapeutics: Primary screen using the parental adenocarcinoma cell KB-3-1; note: nearly all actives have a fitted effect of over 60% in size
Conditions: KB-3-1 viability, CellTiter-Glo ATP luminescence, 72 h; activity change, negative = cytotoxic: at 46.1 µM (top of the series)
How it was run: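 Using CellTiter-Glo luminescence, growth of non-resistant KB-3-1 adenocarcinoma cells is assessed 72 h after pin-tool compound addition at 37 °C. Normalized responses across the concentration series yield fitted curves.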
With COC(=O)C(=C/C(C)=C/c1cccs1)C(=O)OC the Potency was inconclusive: 25.9 µM [cytotoxic, partial curve, poor fit]. In the case of Nc1cc(C(F)(F)F)cc2c1SCC(=O)N2, the “activity change, negative = cytotoxic” value is reported as inactive: -4.91%. In the case of CCCCc1ccc(NC(=O)CSc2nc(=O)n(CCN(CC)CC)c3c2CCCC3)cc1, the Potency is reported as inconclusive: 29.1 µM [cytotoxic, single point]. With O=C(NNC(=S)Nc1cccc(C(F)(F)F)c1)c1cccc(Cl)c1 the Potency was inconclusive: 29.1 µM [cytotoxic, single point]. For COc1cc(/C=C/c2cccc[n+]2C)ccc1OCC(=O)Nc1cccc(Cl)c1, the Potency was inconclusive: 11.6 µM [cytotoxic, partial curve, poor fit]. With CCOc1ccc2[nH]c(=O)c(CN(Cc3ccco3)C(CC)c3nnnn3Cc3ccccc3)cc2c1 (centres undefined) the Potency was inconclusive: 29.1 µM [cytotoxic, single point]. With COc1ccc(C(c2nnnn2C2CCCCC2)N2CCN(c3ccccc3F)CC2)cc1 (centres undefined) the Potency was inconclusive: 13 µM [cytotoxic, partial curve, poor fit]. With O=C(O)CCN(CCC(=O)O)c1ccc(/C=C/c2ccnc3ccccc23)cc1 the Potency was inconclusive: 20.6 µM [rising, single point]. With Cc1cccc(NC(=O)c2oc(=O)c3ccccc3c2-c2ccccc2)c1C the “activity change, negative = cytotoxic” value was inactive: -2.61%. For O=C(COc1ccc(F)cc1Cl)N(Cc1nnc(-c2ccccc2Cl)o1)C1CC1, the “activity change, negative = cytotoxic” value was inactive: -4.02%. For O=[N+]([O-])c1cc(CN2CCCC2)c2cccnc2c1O, the Potency was inconclusive: 25.9 µM [cytotoxic, single point]. For CCCNC(=O)C1CCN(S(=O)(=O)c2ccc(Br)cc2)CC1, the “activity change, negative = cytotoxic” value was inactive: -14.9%. With Cc1ccc(CNS(=O)(=O)c2c(C(=O)N3CCCCCC3)c(C)n(C)c2C)cc1 the “activity change, negative = cytotoxic” value was inactive: 8.34%. In the case of CCOc1ccc(Cl)cc1C1=CC(=O)C[C@H](c2ccc(OC)cc2)C1, the Potency is reported as inconclusive: 0.461 µM [cytotoxic, full curve, poor fit]. With COc1ccc(S(=O)(=O)Nc2ccc(NC(C)=O)cc2)cc1 the “activity change, negative = cytotoxic” value was inactive: -15.7%. In the case of CC(Oc1ccccc1)C(=O)N1CCC2(CC1)Oc1ccc(F)cc1C(=O)C21CC(c2cccnc2)=NO1 (centres undefined), the Potency is reported as inconclusive: 23.1 µM [cytotoxic, single point]. With Cc1cc(-c2nc3ncccc3o2)ccc1NC(=O)CC(C)C the Potency was inconclusive: 10.3 µM [rising, partial curve]. For COc1cc(/C=N/NC(=O)C(C)Nc2n[nH]c(=O)[nH]c2=O)ccc1O (centres undefined), the Potency was inconclusive: 29.1 µM [rising, partial curve, poor fit]. In the case of CCCCCOc1ccc(NC2=CC(=O)CCC2)cc1, the Potency is reported as inconclusive: 18.4 µM [cytotoxic, single point]. For CCOC(=O)N1CCC(n2c(SCC(=O)N3CCC(C)CC3)nc3ccccc3c2=O)CC1, the Potency was inconclusive: 29.1 µM [cytotoxic, single point]. For COC(=O)[C@]12CCCCC=C1N(Cc1ccc(Cl)cc1Cl)C(=O)[C@H](CC(=O)NCc1ccccc1)C2, the Potency was inconclusive: 23.1 µM [cytotoxic, single point]. For CC(=O)c1cccc(NC(=O)CNC(=O)c2cc3ccccc3o2)c1, the Potency was inconclusive: 20.6 µM [rising, single point]. With CC(C)(C)C1=C(C#N)C(c2ccc3c(c2)OCO3)C(C#N)=C(N)O1 (centres undefined) the “activity change, negative = cytotoxic” value was inactive: -11.3%. In the case of c1ccc2c(c1)ccc1[nH]c3c(c12)CCCC3, the Potency is reported as inconclusive: 4.61 µM [cytotoxic, full curve]. For CCc1ccc(OC(C)C(=O)N2CCC(c3nc4ccccc4s3)CC2)cc1 (centres undefined), the Potency was inconclusive: 16.4 µM [cytotoxic, single point]. In the case of c1ccc(CSc2nnc(-c3cccs3)n2Cc2ccco2)cc1, the Potency is reported as inconclusive: 32.6 µM [cytotoxic, partial curve, poor fit]. For CCOC(=O)c1cnc(Nc2nc3ccccc3o2)nc1CSC(=S)N(CC)CC, the Potency was active: 1.3 µM. With CCn1cc(C(=O)NCCCN(C)C)c(=O)c2cc(F)c(N3CCN(C)CC3)cc21 the Potency was inconclusive: 6.51 µM [rising, partial curve]. With C=CCn1c(-c2sccc2C)n[nH]c1=S the “activity change, negative = cytotoxic” value was inactive: 27.2%. For O=C(Oc1ccc(Br)cc1C(=S)N1CCOCC1)c1ccc(F)cc1, the activity change, negative = cytotoxic was inconclusive: -29.6%. For CC(=O)Nc1ccc(NC(=O)C(=O)NCC(c2ccco2)N2CCc3ccccc32)cc1 (centres undefined), the Potency was inconclusive: 23.1 µM [cytotoxic, single point]. For O=C(NC1(C(F)(F)F)C(=O)Nc2c1c(=O)[nH]c(=O)n2CCc1ccccc1)c1ccc(Cl)cc1Cl (centres undefined), the “activity change, negative = cytotoxic” value was inactive: 13.3%. For COc1ccc(CCC(=O)N2c3ccccc3N=C(c3ccc(C(F)(F)F)cc3)C2C(=O)NC(C)(C)C)cc1 (centres undefined), the Potency was inconclusive: 23.1 µM [cytotoxic, single point]. For O=C(Nc1ccc(Oc2ccccc2)cc1)C1CC1, the Potency was inconclusive: 25.9 µM [cytotoxic, single point]. In the case of CCOCCOC(=O)c1[nH]c2c(c1C)C(=O)CC(c1cc(OC)c(OC)c(OC)c1)C2 (centres undefined), the Potency is reported as inconclusive: 20.6 µM [cytotoxic, partial curve, poor fit]. For c1ccc2c(C(c3c[nH]c4ccccc34)c3c[nH]c4ccccc34)c[nH]c2c1, the Potency was inconclusive: 29.1 µM [cytotoxic, single point]. In the case of CCOC(=O)N1CCN(C(=O)CS(=O)(=O)c2cn(Cc3ccc(Cl)cc3)c3ccccc23)CC1, the Potency is reported as inconclusive: 0.651 µM [cytotoxic, partial curve]. With O=C(NC1CCCCC1)C(c1ccccc1)N(Cc1cccnc1)C(=O)c1csnn1 (centres undefined) the Potency was inconclusive: 29.1 µM [rising, single point]. For CCC(=O)C(C#N)(c1ccc(OC)c(OC)c1)C(C)C (centres undefined), the “activity change, negative = cytotoxic” value was inactive: -12.8%. With C=CCn1c(=NC(=O)c2sc3ccccc3c2Cl)sc2cc(S(N)(=O)=O)ccc21 the “activity change, negative = cytotoxic” value was inactive: -1.6%. For CCOC(=O)c1[nH]c(C)c(C(=O)Nc2ccccc2F)c1C, the Potency was active: 2.31 µM. In the case of COc1ccc(/C=C(/C(=O)c2ccc(Cl)cc2Cl)n2cncn2)cc1, the “activity change, negative = cytotoxic” value is reported as inactive: -15.3%. In the case of Cc1ccccc1CNC(=O)C(=O)Nc1nccs1, the “activity change, negative = cytotoxic” value is reported as inactive: 4.03%. For Cn1c(=O)c2c(nc(N3CCCCCC3)n2CC(O)COc2ccccc2)n(C)c1=O (centres undefined), the Potency was inconclusive: 29.1 µM [cytotoxic, single point].

Source: PubChem BioAssay AID1347075 (National Center for Advancing Translational Sciences (NCATS), 2019)
% is set by controls: 0 for no effect and ±100 for the full control effect; potency is the fitted concentration of half-maximal effect.
